# The inconclusive results got no clear call from the source; some entries with a clear call stand among them for comparison. A potency beside an inconclusive call is a rough fit, not a confirmed value. The source made the active and inactive calls. The call rests on the fitted dose curve; in most records, active means well fitted cell-killing curve with a large enough effect; inconclusive means small, poorly fitted or top-dose-only effect, or effect the other way; inactive means no such curve, though single readings can be large or run the other way.
# Test: Quantitative High-Throughput drug screen in 47 multiple myeloma cell lines against the NCATS MIPE library collection: KMM1_JCRB cell viability assay (AID 1918960); further: nearly all actives have a fitted effect of over 30% in size
# Details: KMM1 myeloma viability, CellTiter-Glo ATP luminescence, 48 h; series mostly up to 45.8 µM
# From the text: PI: Beverly A. Mock Ph.D.
# Laboratory of Cancer Biology and Genetics,
# Center for Cancer Research, National Cancer Institute,
# National Institute of Health, Bethesda, Maryland
# Drug resistance and disease progression are common in multiple myeloma (MM) patients, underscoring the need for new therapeutic combinations. […] We hypothesized that effective combinations would reduce MYC expression and enhance p16 activity. […] These preclinical data identify potentially useful drug combinations for evaluation in drug-resistant MM and reveal potential mechanisms of combined drug sensitivity.
# Described herein is the primary MIPE qHTS used to cherrypick compounds. Validated compounds were then further tested for potential synergistic activiy.
# [1] Peat TJ, Gaikwad SM, Dubois W, Gyabaah-Kessie N, Zhang S, Gorjifard S, Phyo Z, Andres M, Hughitt VK, Simpson RM, Miller MA, Girvin AT, Taylor A, Williams D, D'Antonio N, Zhang Y, Rajagopalan A, Flietner E, Wilson K, Zhang X, Shinn P, Klumpp-Thomas C, McKnight C, Itkin Z, Chen L, Kazandijian D, Zhang J, Michalowski AM, Simmons JK, Keats J, Thomas CJ, Mock BA. Drug combinations identified by high-throughput screening promote cell cycle transition and upregulate Smad pathways in myeloma. Cancer Lett. 2023 Aug 1;568:216284. doi: 10.1016/j.canlet.2023.216284. Epub 2023 Jun 24. PMID: 37356470; PMCID: PMC10408729.
# SEQUENCE No. (e.g., 1, 2, 3, etc.); […] (e.g., Cells, Incubation, Reagent, etc.); VALUE and DESCRIPTION.
# 1; Cells; 5 uL; white, solid bottom 1536-well Greiner assay plate.
# 2; Compounds; 23 nL; Kalypsis pin tool (Wako USA) equipped with a 1536-well pin head to transfer to the assay plates.
# 3; Incubation; 48 hours; 37C incubation.
# 4; Reagent;5uL; CellTiter Glo (Promega).
# 5; Detector; 425V; Luminescence; Viewlux PerkinElmer.
# NOTES (numbers refer to Sequence numbers above)
# 1. The cell-based screening methods employed in this study were like those previously published. Briefly, the corresponding myeloma cell lines were screened in 1,536-well plates with 500 cells, 5-uL per well for inhibition of cell viability (assessed by measuring ATP levels with CellTiterGlo).
# 2. NCATS MIPE 4.0 library of approved and investigational drugs were added using the Kalypsis pin tool. Wells treated with DMSO only for 100% viability and media only cells for 0% viability were used as controls.
# 3. The assay plates were covered and incubated for 48 hours in a 37C, 5% CO2 incubator with controlled humidity.
# 4. After 48 hours, CellTilter-GloTM luminescent substrate mix (Promega) reagent was added to the assay plate and plates we incubated for 5 min at room temperature.
# 5. Signal was measured as median relative luminescence units on a ViewLux (PerkinElmer) multiplate reader.
# [1] Heske CM, Davis MI, Baumgart JT, Wilson K, Gormally MV, Chen L, Zhang X, Ceribelli M, Duveau DY, Guha R, Ferrer M, Arnaldez FI, Ji J, Tran HL, Zhang Y, Mendoza A, Helman LJ, Thomas CJ. Matrix Screen Identifies Synergistic Combination of PARP Inhibitors and Nicotinamide Phosphoribosyltransferase (NAMPT) Inhibitors in Ewing Sarcoma. Clin Cancer Res. 2017 Dec 1;23(23):7301-7311. doi: 10.1158/1078-0432.CCR-17-1121. Epub 2017 Sep 12. PMID: 28899971; PMCID: PMC6636827.
# Potency means the concentration at half of the fitted maximal effect.
row,SMILES,Potency
1,CCOC(=O)N1CCC(=C2c3ccc(Cl)cc3CCc3cccnc32)CC1,inactive
2,CC(C)N1[N]C(=C2C=c3cc(O)ccc3=N2)c2c(N)ncnc21,active: 296 nM
3,O=C(O)COCCN1CCN(C(c2ccccc2)c2ccc(Cl)cc2)CC1 (stereo not given),inactive
4,COc1cc2c(cc1O)CCC1C2CC[C@@]2(C)C1CC[C@@H]2O (stereo not given in full),"inconclusive: 662 nM [cytotoxic, full curve, poor fit]"
5,CN(C)c1ccc(C(=O)NCCCCCCC(=O)NO)cc1,active: 105 nM
6,CCS(=O)(=O)c1cccc(-c2cc(C(=O)NC3CCN(C)CC3)c(C)c3[nH]c4ncc(C)cc4c23)c1,active: 2960 nM
7,COc1cc(C)c(Sc2cnc(NC(=O)c3ccc(CNC(C)C(C)C)cc3)s2)cc1C(=O)N1CCN(C(C)=O)CC1 (stereo not given),inactive
8,CO[C@@H]1[C@@H](OC(N)=O)[C@@H](O)[C@H](Oc2ccc3c(O)c(NC(=O)c4ccc(O)c(CC=C(C)C)c4)c(=O)oc3c2C)OC1(C)C,"inconclusive: 11800 nM [cytotoxic, single point]"
9,CNC(=O)c1nn(C)c2c1C(C)(C)Cc1cnc(Nc3ccc(N4CCN(C)CC4)cc3)nc1-2,active: 935 nM
10,NC1(Cc2ccc(Cl)cc2)CCN(c2ncnc3[nH]ccc23)CC1,active: 3720 nM
11,COc1cc(C[C@@H](CO)[C@H](CO)Cc2ccc(O)c(OC)c2)ccc1O,"inconclusive: 7430 nM [cytotoxic, full curve]"
12,CCCCCCCCCCCCCCCCCCCCCCO,inactive
13,CN(C)CC[C@H](c1ccc(Cl)cc1)c1ccccn1,inactive
14,O=C(Nc1cccc(Nc2ncc(Br)c(NCCc3cnc[nH]3)n2)c1)N1CCCC1,inactive
15,COc1cccc2c1C(=O)c1c(O)c3c(c(O)c1C2=O)C[C@@](O)(C(C)=O)C[C@H]3O[C@H]1C[C@H](N)[C@H](O)[C@H](C)O1,active: 74.3 nM
16,OCCNC1CCCc2c1[nH]c1ccc(-c3ccccc3)cc21 (stereo not given),active: 18700 nM
17,COc1cc(C(=O)N2CCC(N3CCN(C)CC3)CC2)ccc1Nc1ncc2c(n1)N(C)c1ccccc1C(=O)N2C,active: 1660 nM
18,COC(=O)Nc1nc2ccc(C(=O)c3ccc(F)cc3)cc2[nH]1,"inconclusive: 418 nM [cytotoxic, full curve]"
19,CN(C)CCc1c[nH]c2ccc(CS(=O)(=O)N3CCCC3)cc12,"inconclusive: 9350 nM [cytotoxic, partial curve, poor fit]"
20,O=C1c2c(O)cccc2[C@@H]([C@@H]2O[C@H](CO)[C@@H](O)[C@H](O)[C@H]2O)c2cc(CO)cc(O)c21,inactive

row,SMILES,Potency
1,Nc1ncnc2c1c(-c1cnc3[nH]ccc3c1)nn2C1CCCC1,active: 66.2 nM
2,CN1CCN(c2c(F)cc3c(=O)c(C(=O)O)cn4c3c2OCN4C)CC1,inactive
3,C=CC(=O)Nc1cccc(Nc2nc(NC3CCC(N(C)C)CC3)nc3c2ncn3C(C)C)c1 (stereo not given),active: 13.2 nM
4,CNC(=O)Nc1ccc(-c2nc(N3CC4CCC(C3)O4)c3cnn(C4CCC5(CC4)OCCO5)c3n2)cc1,"inconclusive: 26.4 nM [cytotoxic, full curve]"
5,COC(=O)[C@@H]1[C@H]2C[C@@H]3c4[nH]c5ccccc5c4CCN3C[C@@H]2CC[C@@H]1O,inactive
6,C[C@]12CC[C@@H]3c4ccc(O)cc4CC[C@H]3[C@H]1CC[C@H]2O,"inconclusive: 7430 nM [cytotoxic, full curve]"
7,O=C(C=CC#Cc1cccc(NS(=O)(=O)c2ccccc2)c1)NO,active: 526 nM
8,Cc1coc2c1C(=O)C(=O)c1c-2ccc2c(C)cccc12,inactive
9,CCn1cc(-c2ccnc3[nH]c(-c4cccc(CN(C)C)c4)cc23)c(-c2ccc(NC(=O)N(C)C)cc2)n1,active: 3320 nM
10,COc1cc(OC)c(C=CS(=O)(=O)Cc2ccc(OC)c(NCC(=O)O)c2)c(OC)c1,active: 74.3 nM
11,CC(C)(C)NC(=O)[C@H]1CN(Cc2cccnc2)CCN1C[C@@H](O)C[C@@H](Cc1ccccc1)C(=O)N[C@H]1c2ccccc2C[C@H]1O,"inconclusive: 2.1 nM [rising, full curve, poor fit]"
12,CC[C@@]1([C@@H]2O[C@@H]([C@H]3O[C@@](O)(CO)[C@H](C)C[C@H]3C)C[C@H]2C)CC[C@H]([C@]2(C)CC[C@]3(C[C@H](O)[C@@H](C)[C@@H]([C@@H](C)[C@@H](OC)[C@H](C)C(=O)O)O3)O2)O1,"inconclusive: 64.5 nM [cytotoxic, full curve]"
13,CC(C=CC1=C(C)CCCC1(C)C)=CC=CC(C)=CC(=O)Nc1ccc(O)cc1,"inconclusive: 6050 nM [cytotoxic, full curve]"
14,CNC(=O)c1c(F)cccc1Nc1nc(Nc2cc3c(cc2OC)CCN3C(=O)CN(C)C)nc2[nH]ccc12,"inconclusive: 37.2 nM [cytotoxic, full curve, poor fit]"
15,NNC(=O)c1ccncc1,inactive
16,Cc1cc(Nc2cc(CN3CCOCC3)c3nc(C)c(Cc4ccc(Cl)cc4F)n3n2)n[nH]1,"inconclusive: 1320 nM [cytotoxic, partial curve, poor fit]"
17,COc1cc(CCc2cc(NC(=O)c3ccc(N4C[C@@H](C)N[C@@H](C)C4)cc3)n[nH]2)cc(OC)c1,active: 18700 nM
18,COC(=O)Nc1ccc(-c2nc(N3CCOCC3)c3cnn(C4CCN(Cc5cccnc5)CC4)c3n2)cc1,"inconclusive: 148 nM [rising, full curve, poor fit]"
19,CCOc1cc2c(c(F)c1OCC)C(=N)N(CC(=O)c1cc(N3CCOCC3)c(OC)c(C(C)(C)C)c1)C2,"inconclusive: 1.9 nM [rising, full curve]"
20,C=CCNC1=C2C[C@@H](C)C[C@H](OC)[C@@H](O)[C@@H](C)C=C(C)[C@H](OC(N)=O)[C@@H](OC)C=CC=C(C)C(=O)NC(=CC1=O)C2=O,active: 148 nM

# An excerpt of these results, with tabs.
row	SMILES	Potency
2	CN1CCN(c2c(F)cc3c(=O)c(C(=O)O)cn4c3c2OCN4C)CC1	inactive
3	C=CC(=O)Nc1cccc(Nc2nc(NC3CCC(N(C)C)CC3)nc3c2ncn3C(C)C)c1 (stereo not given)	active: 13.2 nM
4	CNC(=O)Nc1ccc(-c2nc(N3CC4CCC(C3)O4)c3cnn(C4CCC5(CC4)OCCO5)c3n2)cc1	inconclusive: 26.4 nM [cytotoxic, full curve]
